Source: article PMC11997425
For at least one entry, the source does not settle the construct or the ends of the probe. At least one result comes from cells or an extract, where the contact may be indirect. A weaker result is weaker than the reference pair of the same experiment. Where a protein sequence is shown, tags need not be part of it.

Target: T1, PsAGL9-GFP (Paeonia suffruticosa) (UniProt V9I0Q3)
T1 sequence (looked up): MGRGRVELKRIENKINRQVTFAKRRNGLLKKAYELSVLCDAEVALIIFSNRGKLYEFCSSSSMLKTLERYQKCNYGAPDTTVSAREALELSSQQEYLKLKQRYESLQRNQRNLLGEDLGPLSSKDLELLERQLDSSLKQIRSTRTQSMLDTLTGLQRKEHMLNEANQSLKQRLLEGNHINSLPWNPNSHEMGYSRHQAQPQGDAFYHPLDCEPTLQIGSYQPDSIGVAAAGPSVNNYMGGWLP
Assay: EMSA
Settings: Chemiluminescent EMSA Kit (Beyotime), pH and temperature not stated, protein in a lysate after overexpression, residues 1-243, protein details: GFP, label: biotin

**Q.** Does “TTTGGCCAATTTTGGTTAAA (double strand) [PsCYCD CArG probe (Methods)]” bind (increasing protein, without PsRGL1)?
**A.** binds

**Q.** Does “TTTGGCCAATTTTGGTTAAA (double strand) [PsCYCD CArG probe (Methods)]” bind (with HA-PsRGL1 (inhibits DNA binding))?
**A.** binds more weakly
